This is an account of results in publication PMC5751700.

Amino acid sequences for entries named in this document (tags omitted). Residues count along the entry.
UniProt P61823, residues 27-150: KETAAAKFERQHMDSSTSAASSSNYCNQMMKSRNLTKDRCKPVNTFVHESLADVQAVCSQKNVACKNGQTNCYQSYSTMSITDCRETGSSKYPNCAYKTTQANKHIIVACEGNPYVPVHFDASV
UniProt P02769, residues 25-607: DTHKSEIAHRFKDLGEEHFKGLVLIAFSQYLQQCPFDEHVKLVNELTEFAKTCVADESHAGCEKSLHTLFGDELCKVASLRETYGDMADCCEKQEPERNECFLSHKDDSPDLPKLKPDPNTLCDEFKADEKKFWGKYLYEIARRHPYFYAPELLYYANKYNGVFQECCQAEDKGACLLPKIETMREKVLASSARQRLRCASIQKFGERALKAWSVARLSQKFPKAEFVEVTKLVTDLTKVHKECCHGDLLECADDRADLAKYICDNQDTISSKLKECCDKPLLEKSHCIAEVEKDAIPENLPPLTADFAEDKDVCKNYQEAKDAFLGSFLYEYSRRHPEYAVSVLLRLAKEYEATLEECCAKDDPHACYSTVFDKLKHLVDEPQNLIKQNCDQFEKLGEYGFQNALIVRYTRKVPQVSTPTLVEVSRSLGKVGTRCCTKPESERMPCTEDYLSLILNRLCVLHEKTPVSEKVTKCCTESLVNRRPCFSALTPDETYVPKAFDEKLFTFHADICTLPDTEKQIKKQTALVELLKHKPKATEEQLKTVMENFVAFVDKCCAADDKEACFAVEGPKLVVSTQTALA

The target in the assay is glycoprotein ribonuclease B (UniProt P61823). The experiment in a line: SPR; fibre optic SPR read by intensity (yellow LED 595 nm, web camera); RNase B amine-coupled (MUA, EDC/NHS) on the Au-coated fibre, unreacted esters blocked with BSA; reference channel blocked with BSA without RNase B and subtracted; PBS pH 7.4; 500 uL sample at 250 uL/min; regeneration with 8.0 mol/L urea; both purified. (In general: Surface plasmon resonance follows binding to a sensor surface in real time, without labels.)

No constants are given. Whether binding was seen depends on the method and setting.

As to “bovine serum albumin (from UniProt P02769 25-607)”, the binding result is on record as “no binding (tested: 0.2 mg/mL)”.
